The source of these data is patent publication US20230414780A1.

These are yes or no findings as the source states them, for the method shown. Some results given as binding are weak or reduced against the parent protein; the word gives no strength. For some of these results: Sequences can lack the tags named with a protein.

Assay [1] has as its target human transferrin receptor (hTfR) fused to EGFP, on CHO cells (human) (UniProt P02786). The experiment in a line: flow cytometry, CHO-hTfR-GFP cells.
The target is the same in assay [2]. Put plainly: flow cytometry, CHO-hTfR-EGFP cells.
The target is the same in assay [3]. The experiment in a line: flow cytometry on CHO-hTfR-EGFP cells, 1 hr at 4 C, anti-6His + Alexa647 anti-mouse; ratio to background fluorescence.
For assay [4] the target is unchanged. The experiment in a line: flow cytometry screening, CHO cells. A general note: In flow cytometry, cells or beads pass a laser one at a time.
For assay [5] the target is unchanged. Put plainly: competition flow cytometry on CHO-hTfR-EGFP cells, 4 C; VHH competitor in dilution series, phage-H1 tracer at EC80, anti-M13-A647.
Assay [6] concerns the target mouse transferrin receptor (mTfR) fused to EGFP, on CHO cells (mouse) (UniProt Q62351). The experiment in a line: flow cytometry on CHO-mTfR-EGFP cells, 1 hr at 4 C, anti-6His + Alexa647 anti-mouse.
The target of assay [7] is human transferrin receptor (hTfR) fused to EGFP, on CHO cells (human) (UniProt P02786). Put plainly: competition flow cytometry on CHO-hTfR-EGFP cells, 4 C; VHH competitor in dilution series, phage-B6 tracer at EC80, anti-M13-A647.

B1: VHH B-siGFPst1 bioconjugate (VHH, not shown: small tags and cut ends)
VHH: EVQLVESGGGVVQPGGSLRLSCAASGEIFSINFMRWYRQAPGKQREWVAGFTRDGSTNYPDSAKGRFTISRDNAKNTVYLQIDSLKPEDTAVYYCYMLDTWGQGTQVTVSS
modifications: siGFPst1 siRNA linked to the Gln of the C-terminal Q-tag
With B1, the binding result in assay [1], in assay [2] and in assay [3] was “binds” throughout.

B2: E8 (VHH)
VHH: EVQLVESGGRLVQAGGSLRLSCTASGLAFSTHTMHWFRQAPGKEREFVGAIRWSDEDTEYADSVKGRFTISRDNAKSTVYLQMNNLKPEDTAVYYCAAARGVGTSGHMKYWGQGTQVTVSS
Turning to B2, the binding result in assay [2], in assay [4] and in assay [5] was “binds” throughout.

B3: VHH A12 (C5^V12) (VHH)
VHH: EVQLVESGGGVVQPGGSLKLSCVASGTDFSINFIRWYRQAPGKQREFVAGITATGNTNYADSMKGRFTISRDNTKNAVYLQIDSLKPEDTAVYYCYMLDKWGQGTQVTVSS
Turning to B3, the binding result in assay [6] was “no binding (tested: about 5x10^4 nM)”.

B4: B7 (VHH)
VHH: QVQLVQSGGGLVQAGGSLTLSCTASGRPLSDYPMGWFRRAPEKERELVASISRTGDGTYYADGMRGRFTISRDNSENTVSLQMNNLKPEDTAVYYCGAGINPTKYWGQGTQVTVSS
As for B4, the binding result in assay [2] is recorded as “binds”.

B5: VHH A21 (C5^h2) (VHH)
VHH: EVQLVESGGGVVQPGGSLRLSCAASGTDFSINFIRWVRQAPGKQREFVAGFTATGNTNYADSVKGRFTISRDNAKNTLYLQMNSLRPEDTAVYYCYMLDKWGQGTQVTVSS
With B5, in assay [2], the binding result is “binds”.

B6: C5^h23 (VHH)
VHH: B5 VHH
As to B6, the binding entry in assay [2] was “binds”.

B7: H7 (VHH)
VHH: EVQLVESGGGLVQAGGSLRLSCTASGRPISDYPMGWFRRAPGKDRELVASISRTGDGTYYANSMKERFTISRDNAQNTVSLQISSLKPEDTAVYYCGAGINPTRYWGQGTQVTVSS
For the molecule B7, the binding result in assay [2] was “binds”.

B8: F2a (VHH)
VHH: EVQLVESGGGLVQPGESLRLSCTASESISIYGVGWYRQAPGEQRVLVAHLKRNGLTEYKDSVKGRFTISRDNARNTIYLEMKNLKPEDTAIYYCNTALGSVLPWGRGTQVTVSS
As for B8, the binding result in assay [2] and in assay [7] was “binds” throughout.

B9: C3 (VHH)
VHH: EVQLVQSGGGLVQAGGSLRLSCAASGRDFSDTSMAWHRQAPGKERLWVAGIRSGSTSTSYADSVKGRFTISRDDAKNTVYLQMDNLTPEDTAVYFCYSKGYWGQGTQVTVSS
On to B9, for which the binding entry in assay [2] and in assay [7] was “binds” each time.

B10: H1 (VHH)
VHH: EVQLVESGGGLVQPGGSLRLSCAASGFASHLYAIGWFRQAPGKEREKVSCISSNDGSTYYADSVKGRFTISRDTVKDMVYLQMNSLKPEDTAVYYCATDLTVHCFMAEYDWWGQGTQVTVSS
B10: the binding entry in assay [2], in assay [4] and in assay [5] was “binds” in each case.

B11: E2 (VHH)
VHH: QVQLVQSGGGLVQAGGSLRLSCAASGSIFSDITLAWHRQIPGKEREWVAGISRSGSPSYRDSVKGRFTISRDNAKNTVFLQMNSLEPEDTGVYYCYSRGYWGQGTQVTVSS
Consider B11, for which, in assay [2], the binding entry is on record as “binds”.
